# Earlier results, collected in patent US20230270687A1, “H[…] HYDROGEL PATCHES” (JSIC Laboratories, LLC, priority 2022, published 2023).
# Some of these results come from one statement about several compounds together.
# Tested on: molluscum contagiosum
# Conditions: topical, after twelve weeks of treatment
structure (smiles),measurement,value
CC(C)Cn1cnc2c(N)nc3ccccc3c21 [Imiquimod],cure rate,10-40%
CC1=C(/C=C/C(C)=C/C=C/C(C)=C/C(=O)O)C(C)(C)CCC1 [Tretinoin],cure rate,10-40%
